Screen size: about 31,000 sequences; about 1,400 (4.5%) were called active.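 Rule for the calls: active = median seed-adjusted z-score above 1 or below -1; inactive = the rest.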 Some of the results follow.

For 108 sequences, median seed-adjusted z-score results are on record in PubChem BioAssay AID1347426 (Functional Genomics Laboratory (NCATS/FGL), 2020).

The nature of the assay: Novel Modifiers of Survival Motor Neuron (SMN) Protein: Gene Identification via Genome-wide siRNA Screen.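 Note: luminescence tracks full-length SMN protein made from the SMN2 reporter.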 Particulars: HEK293T SMN2-luciferase reporter, siRNA knockdown, 72 h; actives lie on both sides. An outline of the steps:
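HEK293T cells stably expressing an SMN2 splicing/cDNA-luciferase reporter were reverse-transfected with a druggable-genome siRNA library and read by luminescence at 72 hours; hits defined by MAD score above 1.0 or below -1.0.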
Regarding CGUUUCUCAUAAAGUGAUATT against HELT, the median seed-adjusted z-score is inactive: -0.192.
Consider GAAACAACAUAUAUGUGAUTT against ZNF24, for which the median seed-adjusted z-score is inactive: 0.388.
With GCCCUGACCAGGUUAUAGATT against IPO4 the figure was inactive: -0.0188.
For ACCGAGAGAUGGUAUAUGATT against SUPT4H1, the median seed-adjusted z-score was active: -1.01.
In the case of GCAAUCGGGUGGUAUCAUATT against COPS5 it was inactive: -0.124; in that of GCAACUACGUGUUCUCUGATT against MUC5B, inactive: 0.141.
On to GCUGGAGUCAGUUUAGUGATT against BCL2L1, for which the median seed-adjusted z-score was inactive: 0.0801.
In the case of GACUCUUCAGGCUUCAGAATT against ZFP91, the median seed-adjusted z-score is inactive: 0.0597.
With GCUUAUUCCUACUCCUAUUTT against PTPRT, the median seed-adjusted z-score is inactive: -0.323.
As to GUCCCGUGUUAAAAGAAAATT against PCSK7, the median seed-adjusted z-score was inactive: 0.
Regarding GGACAUUCAAUUCAAACCATT against SMAD4, the median seed-adjusted z-score is inactive: 0.0746.
With CGGAGGUGUCUGAACUAAATT against TPM4, the median seed-adjusted z-score was inactive: -0.407.
Take CCAUAAUAUCUGCCGAACATT against MBNL1: the median seed-adjusted z-score is inactive: 0.658.
Take GGAUUGAACGGCCUCAUGATT against TRPC6: the median seed-adjusted z-score was inactive: -0.527.
As to AAGAGAUUUUUGUAACUGATT against BCL2L14, the median seed-adjusted z-score was inactive: -0.859.
As to UAUUAACCAUGGAACCUUATT against USP49, the median seed-adjusted z-score was inactive: 0.549.
In the case of CAAAACAGACCGAAAGAAATT against DBX2, the median seed-adjusted z-score was inactive: 0.244.
On to CUAGUGUGAUGGACAGACATT against RCOR2, for which the median seed-adjusted z-score is inactive: -0.129.
Regarding GCAGCAAGAAGUAACGGAATT against ADRBK2, the median seed-adjusted z-score is inactive: 0.148.
On to GCGGUUGGCACUUCGAGAATT against HRK, for which the median seed-adjusted z-score is inactive: 0.217.
In the case of CAAGACACCUGGGAAGAAATT against PTHLH, the median seed-adjusted z-score is inactive: 0.00556.
Regarding CCUCAGUUAUAAACAAGUATT against ZNF585A, the median seed-adjusted z-score was inactive: -0.168.
With CGACCUUGGAGAACUACUATT against PROX2, the median seed-adjusted z-score is inactive: -0.825.
Consider AAGACUCACUUGUUCAACATT against ZNF772, for which the median seed-adjusted z-score is inactive: 0.817.
With GGAAUAUGGAACUCACAUATT against CELSR3 the figure was inactive: 0.
On to GCCUUUAGCAGGUACUCAATT against ZNF429, for which the median seed-adjusted z-score is inactive: 0.479.
With UGCAAAAAGUGCUGAAAUATT against MOCS2 the figure was inactive: 0.0327.
In the case of CAGCUACCGGAAGCAGGAATT against CCL21 it was inactive: -0.227; in that of CAGUCCACAUUUAACGAUUTT against RAP1B, inactive: -0.0262.
As for GGAUGAAGAAGGCCGGAAATT against POLG2, the median seed-adjusted z-score was inactive: 0.
On to GGACAUAAGAAAGCUCGAATT against SLC12A6, for which the median seed-adjusted z-score is inactive: 0.155.
With CUAGAGGACUGGUUCGGGATT against CDK2AP1 the figure was inactive: 0.168.
Consider GGAGUGCCCACAGUCAGAATT against SMUG1, for which the median seed-adjusted z-score is active: -1.38.
In the case of GGAACAAGGUACCACGAAATT against DHX16 it was inactive: 0.102; in that of AGAGGAUCGGCUUGAACAATT against FOXC1, inactive: -0.447.
GGGUCUUCGUCAUGCUCUATT against GPR142: the median seed-adjusted z-score was inactive: -0.0636.
Consider GAUCUACCCAGAUCAGAAATT against CHI3L2, for which the median seed-adjusted z-score was inactive: 0.374.
In the case of GGAUUUCGAUUGCAUCAUUTT against LGI1, the median seed-adjusted z-score is inactive: -0.19.
CCAGGAUCGUGAUAACUGUTT against USP6: the median seed-adjusted z-score was inactive: -0.285.
On to CCCGGUUACCCUUAAGUUATT against DDX56, for which the median seed-adjusted z-score was inactive: 0.904.
Turning to CCAUAGUCCAAGGCCGUUATT against HARS2, the median seed-adjusted z-score was inactive: 0.
In the case of GAAUCAGAAUACGUAGGAATT against PCDHA2 it was inactive: 0.803; in that of GCGACUGAUUGAGAAGUCATT against TJP3, inactive: -0.183; in that of CCUUCUCAACAUAGGAUAATT against ZNF257, inactive: 0.306.
On to GAGUGGAAGUGUACCAACATT against HCFC1, for which the median seed-adjusted z-score is active: 1.47.
Take GGCCCAAUAUUUAUACCUATT against FAR2: the median seed-adjusted z-score was inactive: 0.0328.
Turning to GGACAUUACAAAACGAUUUTT against ZFYVE9, the median seed-adjusted z-score is inactive: 0.373.
Regarding GGUGGAGUCUUGCACUAAATT against UQCRQ, the median seed-adjusted z-score is inactive: 0.0241.
In the case of CCAGCGCCAUUUCAAGGGATT against ATP5G2 it was inactive: 0.
In the case of CAGCUUGACUAAAAUCGUATT against LRRIQ1, the median seed-adjusted z-score was inactive: 0.
Take CCAUGAAUUCUUACUUUUATT against VAC14: the median seed-adjusted z-score is inactive: 0.0825.
For GCAGCACCGUCUUCUCCUATT against GRIN3B, the median seed-adjusted z-score was inactive: 0.39.
In the case of CAACGCAGCUAUAAGCAAATT against SRGAP3 it was inactive: -0.0961.
As for CAUCGGAGCUCGACAAGAATT against DOCK6, the median seed-adjusted z-score is inactive: 0.0378.
In the case of GUGUCGAUGUGGUCUAUGATT against ZADH2, the median seed-adjusted z-score is inactive: -0.47.
Take GUGACGCAGUUUUAAGGAATT against SLC22A9: the median seed-adjusted z-score was inactive: -0.778.
CUCAUUUCCUGGUAUGACATT against GAPDH: the median seed-adjusted z-score is inactive: 0.479.
In the case of GAAUGGUCAUCUCCGGUUATT against RAPGEF6 it was inactive: -0.186.
In the case of CUAGAGCUUUUAUGUCCAATT against TRIM61, the median seed-adjusted z-score was inactive: 0.0116.
On to GCCUAGUGCUGACCUAUAUTT against GBP3, for which the median seed-adjusted z-score was inactive: -0.864.
For the sequence GGUUCUGACAGACAAUGGATT against DPT, the median seed-adjusted z-score was inactive: 0.073.
On to CCAUUUGAUUUGUCGUAUATT against FRK, for which the median seed-adjusted z-score was inactive: -0.14.
With GUCAAUUCCUGGAAUUUGATT against HLA-B the figure was inactive: -0.355.
Consider GUAGAUUGGUUAGAGAGUATT against NUP107, for which the median seed-adjusted z-score was inactive: -0.692.
For the sequence GUCUGUCGCUACUACAAUATT against SLCO2B1, the median seed-adjusted z-score was inactive: 0.289.
With CCUGAUCCCGGAGACCUUUTT against STK19 the figure was inactive: -0.188.
With CCAUCCACGAAAAUGCUUUTT against FRAG1, the median seed-adjusted z-score was inactive: -0.554.
In the case of GACCUUAACUAGUCGUGGATT against EIF4G3 it was inactive: -0.0562.
CCCGAUGUGCGGAAAGUAATT against OPCML: the median seed-adjusted z-score is inactive: -0.282.
For GGCAAACUGUGGUCAUAUATT against RPS6KC1, the median seed-adjusted z-score is inactive: 0.344.
Consider GAGUAUCUAGUAAUCCUUUTT against HRB, for which the median seed-adjusted z-score was inactive: 0.921.
Consider GGAGGUUUGUGACUGCACUTT against PAQR5, for which the median seed-adjusted z-score was inactive: -0.0985.
In the case of GCAGAACCUUUACUCAAUUTT against ZNF678 it was inactive: 0.172; in that of CCAUCUCCAGCGAUGAUGATT against CYB5R3, inactive: -0.901.
As to GGAUGGUGCCGAAACCAGUTT against ERCC2, the median seed-adjusted z-score was inactive: -0.0551.
For CAUUCUCAGUCAUCAUAGATT against ATP8A2, the median seed-adjusted z-score is inactive: 0.
Turning to UGGUCUCAAUGACAGUAGATT against SNRPB, the median seed-adjusted z-score is active: -3.17.
For GGAUCCUACCUGAACAGCATT against GPR158, the median seed-adjusted z-score is inactive: 0.198.
Turning to GGAGGACUAUGAUUUCGGATT against MAK, the median seed-adjusted z-score was inactive: 0.22.
In the case of GGAUAGUUAUCUAAGAUCATT against DOCK11, the median seed-adjusted z-score was inactive: 0.293.
For the sequence CCAUCACGGGAUAUGUUGATT against BTNL8, the median seed-adjusted z-score is inactive: 0.0508.
As for GCUUCGGUGACAACCUGUATT against HIC1, the median seed-adjusted z-score is inactive: 0.523.
In the case of CGAGAUUUACUGCAAAGGATT against CSRP1, the median seed-adjusted z-score is inactive: -0.312.
Turning to CGACUGUUCCGACGACAAUTT against HAVCR1, the median seed-adjusted z-score is inactive: -0.306.
In the case of CCAUCGGACUGACAGUGAATT against COPZ1, the median seed-adjusted z-score was active: -1.02.
On to AUCUAGACUUCUCUUUAUATT against FHL3, for which the median seed-adjusted z-score is inactive: 0.105.
In the case of GACUUUACGUGUUAAUUCUTT against HNRNPA0 it was inactive: 0.149.
With CAAUGCAUGUGCGAAGCAATT against KIF5C, the median seed-adjusted z-score is inactive: 0.283.
AAACUGCUCUCAGUAUAGATT against SPINK2: the median seed-adjusted z-score was inactive: -0.431.
With GAUCAAGUCUGACAUGGAATT against DNAJC5B, the median seed-adjusted z-score is inactive: 0.
GAGCAUCUUUGAUCGAGAATT against SPINK5: the median seed-adjusted z-score was inactive: 0.26.
Regarding GGCUAGGAAAGAGAUUUAATT against PPP3R1, the median seed-adjusted z-score is inactive: 0.18.
As to CACUAAACCCUAUACAUCATT against CD34, the median seed-adjusted z-score was inactive: -0.0898.
Consider CACGAUCAGUUACAUCUAUTT against FER, for which the median seed-adjusted z-score was inactive: 0.
With GCAUGGGACGUGAUUUUCATT against CYP11A1 the figure was inactive: 0.0202.
In the case of GCACUUCUCCUGAGCUAUUTT against TIGD3, the median seed-adjusted z-score is inactive: 0.486.
In the case of GCAUGCAUGCGUAAGGAGATT against TRIM72 it was inactive: -0.0122.
In the case of GAAGGAUAGAAGAACUCAATT against MTA3 it was inactive: 0.342; in that of GCGACAAAGGAAAACCUAATT against ZNF264, inactive: 0.617.
In the case of CGUGUUUUCUUGCCGAACATT against RAF1 it was inactive: 0; in that of CCUACGAACAUGACCCUAUTT against STAT1, inactive: -0.0526.
Consider GAUCCUGAAUGUGAACGGATT against SLC6A16, for which the median seed-adjusted z-score is inactive: -0.461.
In the case of GUGAUACUGUCAAAGGUCATT against ATF2 it was inactive: 0.424.
Take GAUGCCUCUGGAUAUUUUATT against RAB12: the median seed-adjusted z-score was inactive: -0.185.
With GCAUAUGGAGAUACCAUUATT against ALCAM the figure was inactive: -0.743; with CGGCCAAACUGCGUCUCAATT against RRAS, inactive: -0.102.
In the case of GGGUCUUCAUGAUUGGUGUTT against SLC44A5 it was inactive: 0.179.
With AGAUCUACAGCUUCAUGAATT against FOXN4, the median seed-adjusted z-score is inactive: 0.15.
